For 60 compounds, cell number change and AC50 results are on record in PubChem BioAssay AID2685 (National Center for Advancing Translational Sciences (NCATS), 2010).

The assay is described as follows: qHTS Assay for Lipid Storage Modulators in Drosophila S3 Cells.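 For cell number change: cells counted by Cell Tracker Red CMTPX staining in the red channel.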 The conditions noted are these: BODIPY lipid droplet fluorescence, 18-24 h; for cell number change: measured here: cell count max response, cells fed with added oleic acid. The gist of the method:
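Drosophila S3 cells loaded with oleic acid (400 uM, as added) and compounds at several concentrations; lipid droplets imaged by 488-nm laser-scanning cytometry, 500–530 nm intensity and object ratio to cell channel. Percent activity normalized to 20 uM Triacsin C.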
(qHTS replaces the single test concentration by a dilution series.)

Setting [1] is: measured here: cell number channel AC50, cells fed with added oleic acid.
[2] abbreviates: measured here: lipid fluorescence (Fed channel) AC50, cells fed with added oleic acid.

Structures are written as SMILES. This is one part of the list. Shown are side measurements of this screen, not its main read-out; they come without a call. The list favours compounds with an active or inconclusive main result. The note in brackets gives the kind of curve behind each potency; many fits are weak.

Consider `COCc1[nH]nc2c1C1(CCC3(CC1)OCCO3)C(C#N)=C(N)O2`, for which the cell number change was -36.4%. In addition, the AC50 (in general, the midpoint of the concentration-response curve, whichever way the signal moves) under setting [1] is 3.26 µM [falling, full curve]. Further, the AC50 under setting [2] is 0.58 µM [falling, full curve, poor fit].

On to `CC(=O)NCCc1nc2ccccc2n1Cc1ccc(Cl)cc1`, for which the cell number change was -0.727%.

Take `Cc1cccc(C(=O)Nc2ccccc2C(=O)OCC(=O)Nc2ccc(C#N)cc2)c1`: the cell number change was -0.804%.

With `COCCN(C(=O)CSc1nnc(-c2ccc(C)c(C)c2)o1)c1c(N)n(CC(C)C)c(=O)[nH]c1=O`, the cell number change worked out at 13.3%.

For `Nc1nc(SCC(=O)Nc2ncc(Cl)cc2Cl)n[nH]1`, the cell number change came to 16.2%. The AC50 under setting [2] was 23.1 µM [rising, single point].

Regarding `COC(=O)c1ccc(CN2CCCCC2)cc1`, the cell number change is -13.3%. Moreover, the AC50 under setting [2] is 0.13 µM [falling, full curve, poor fit].

Consider `COC(=O)c1cc(OC)c(OC)cc1NCC(=O)Nc1ccc(OC)c(OC)c1`, for which the cell number change was determined as 5.94%. The AC50 under setting [1] is 0.82 µM [falling, partial curve, poor fit]. Also, the AC50 under setting [2] is 0.092 µM [rising, full curve, poor fit].

Take `O=C(NC1CCCCC1)C1(S(=O)(=O)c2ccc(Cl)cc2)CC1`: the cell number change is 6.67%.

`COC(=O)c1cc(S(=O)(=O)NCC2CCN(Cc3ccc(F)cc3)CC2)c[nH]1`: the cell number change is 11.5%. Besides, the AC50 under setting [2] is 29.1 µM [falling, single point].

For `COc1ccc(N(CC(=O)NCCC2=CCCCC2)S(=O)(=O)c2ccccc2)c(OC)c1`, the cell number change is -24.4%. Also, the AC50 under setting [2] is 2.06 µM [falling, partial curve, poor fit].

As for `Cc1cc(Cl)ccc1OCC(=O)N1CCCN(C(=O)COc2ccc(Cl)cc2C)CC1`, the cell number change is -13.6%. For the same compound, the AC50 under setting [2] is 6.51 µM [rising, single point].

Consider `Cc1ccc(S(=O)(=O)N2CCN(Cc3ccccc3)CC2)cc1`, for which the cell number change is 11.1%. The AC50 under setting [2] was 0.58 µM [falling, single point].

As for `O=C(O)c1ccc(OCCOc2ccccc2)cc1`, the cell number change was -49.4%. Also, the AC50 under setting [1] is 29.1 µM [falling, single point].

Consider `CC(C)N1C(=O)C2C(C(=O)NCc3ccccc3)C3C=CC2(O3)C1C(=O)NC(C)(C)C` (configuration not stated), for which the cell number change is -4.32%.

Consider `CCS(=O)(=O)c1nc(S(=O)(=O)c2ccc(Cl)cc2)c(N2CCCC2)s1`, for which the cell number change was -20.3%. For the same compound, under setting [2], the AC50 is 18.4 µM [rising, partial curve].

With `O=C(Nc1ccccc1Cl)c1cccc(NS(=O)(=O)c2ccccc2)c1`, the cell number change is -28.1%. Further, the AC50 under setting [1] is 0.58 µM [falling, full curve, poor fit].

For the compound `CC1CCN(C(=O)c2ccc(COc3ccccc3Cl)o2)CC1`, the cell number change was 80.1%. For the same compound, the AC50 under setting [1] was 3.26 µM [falling, partial curve].

Turning to `CN1c2ccccc2-c2nc3ccccc3n2C1c1ccccn1` (configuration not stated), the cell number change is -21.5%.

As for `N#CCCN(C(=O)COC(=O)C1=NNC(=O)CC1)c1ccccc1`, the cell number change is -27.3%.

On to `COCCNC(=O)C1CC2Cn3c(nc4ccccc43)C2N1C` (configuration not stated), for which the cell number change was found to be 3.57%. For the same compound, under setting [2], the AC50 was 4.11 µM [rising, partial curve, poor fit].

For `COc1ccc(-c2noc(-c3ccccc3-c3ccccc3)n2)cc1OC`, the AC50 by setting is: under setting [1], 0.13 µM [rising, full curve, poor fit]; under setting [2], 1.16 µM [rising, full curve].

Consider `COc1ccc(S(=O)(=O)Nc2nnc(CC(C)C)s2)cc1`, for which the cell number change is -45.7%. Moreover, the AC50 under setting [1] was 0.116 µM [falling, full curve]. In addition, the AC50 under setting [2] was 3.66 µM [falling, full curve].

In the case of `C/C(=N\Nc1nc(N)cc(Cl)n1)c1cccc([N+](=O)[O-])c1`, the cell number change was -10.2%. In addition, the AC50 under setting [2] is 14.6 µM [falling, single point].

As for `Cc1cc(C)c(Cn2ncn(-c3ccc(Br)cc3)c2=O)c(C)c1`, the cell number change was -31.2%. Moreover, the AC50 under setting [1] is 29.1 µM [falling, single point]. Further, the AC50 under setting [2] was 32.6 µM [falling, single point].

In the case of `Cc1ccc(C)n1-c1ccccc1N1CCCCC1`, the cell number change was -39.7%. Also, the AC50 under setting [1] was 10.3 µM [falling, single point].

With `CCCCC(=O)NC(c1ccc(OC)c(OC)c1)c1c(O)ccc2ccccc12` (configuration not stated), the cell number change is -19.3%. In addition, the AC50 under setting [2] was 0.731 µM [falling, full curve, poor fit].

Regarding `O=C(N/N=C/c1ccccn1)c1cccc([N+](=O)[O-])c1`, the AC50 under setting [2] was 0.58 µM [falling, single point].

As for `COc1cc(OC)cc(C(=O)OCC(=O)NC2CCCCCC2)c1`, the cell number change was -2.38%. The AC50 under setting [2] is 2.06 µM [rising, partial curve].

As to `Cc1ccc2nc(-c3ccccn3)oc2c1`, the cell number change is 35.7%. Also, under setting [1], the AC50 was 2.91 µM [rising, full curve]. The AC50 under setting [2] is 6.51 µM [rising, partial curve].

Take `COc1ccccc1N1CCN(c2ccnc3cc(Cl)ccc23)CC1`: the AC50 under setting [2] was 29.1 µM [falling, partial curve, poor fit].

`COc1ccc(C)cc1NC(=O)CNC(c1ccccc1)c1ccccc1`: the cell number change worked out at 17%.

Consider `Cc1ccc(NC(=S)N2CCN(S(=O)(=O)c3ccc(C)cc3)CC2)cc1`, for which the cell number change was determined as 40.5%. The AC50 under setting [1] is 5.17 µM [rising, full curve, poor fit].

For `COc1cc(OC)cc(C(=O)Nc2ccn(C)n2)c1`, the cell number change was -11.8%. Also, the AC50 under setting [2] is 32.6 µM [rising, single point].

`COc1ccc2cc(C)c3nnc(SCC(=O)Nc4cc(OC)c(OC)cc4C(=O)O)n3c2c1`: under setting [2], the AC50 is 4.11 µM [falling, single point].

For `O=C(Nc1ccc(S(=O)(=O)N2CCCCC2)cc1)c1ccco1`, the cell number change is -19.2%.

Turning to `COc1ccc(C(=O)NCC2OCCc3ccccc32)c(O)c1` (configuration not stated), the cell number change is -12.4%. Besides, the AC50 under setting [2] was 6.51 µM [rising, single point].

As to `O=C(CCN1C(=O)/C(=C\c2ccccc2)SC1=S)NNC(=O)c1ccccc1O`, the cell number change came out at 21.2%. The AC50 under setting [2] was 6.51 µM [rising, single point].

On to `Cc1cc(C(=O)OCC(=O)N2CC(C)CC(C)C2)c(C)o1` (configuration not stated), for which the cell number change was determined as 13.2%. Under setting [2], the AC50 is 0.731 µM [falling, full curve, poor fit].

Consider `Cc1ccc(C)c(NC(=O)COC(=O)c2c(C)nn(-c3ccccc3)c2C)c1`, for which the cell number change is -1.69%. Besides, the AC50 under setting [2] was 20.6 µM [rising, partial curve, poor fit].

On to `Cc1cc(-c2n[nH]c(=S)n2Cc2ccco2)n(C)n1`, for which the cell number change worked out at 4.71%. For the same compound, under setting [2], the AC50 is 1.64 µM [rising, partial curve, poor fit].

For `Cc1cccc(NC(=O)CSCC(=O)NCc2ccco2)c1`, the cell number change is -30.1%. In addition, under setting [1], the AC50 was 29.1 µM [falling, single point]. In addition, the AC50 under setting [2] is 2.91 µM [rising, single point].

As for `CCOCCCNC(=O)c1ccc(Cn2c(=O)[nH]c3ccsc3c2=O)cc1`, the cell number change amounted to 17.9%. Under setting [2], the AC50 was 0.461 µM [falling, single point].

In the case of `Cc1cccc(NC(=O)c2ccc(Cl)c(S(=O)(=O)N3CCCC3)c2)n1`, the cell number change was found to be 6.33%.

Turning to `CCOCCCNC(=O)c1cc2c(-c3ccc(Cl)cc3)nn(C)c2s1`, the cell number change was 41.4%. The AC50 under setting [1] is 0.58 µM [rising, full curve]. Besides, the concentration at half-maximal activity (AC50) under setting [2] was 6.51 µM [rising, partial curve].

`Cc1ccc(Cl)cc1N1CCN(C(c2ccc(C#N)cc2)c2nnnn2C2CCCC2)CC1` (configuration not stated): the cell number change is -20.1%. Besides, the AC50 under setting [2] is 23.1 µM [rising, single point].

Regarding `CN(C)CC1CCCCC1OC(=O)/C=C/c1ccccc1` (configuration not stated), the cell number change is -15.2%. Further, the AC50 under setting [2] is 1.3 µM [falling, full curve].

`CN(C)S(=O)(=O)c1ccc(Nc2nc(C3CC3)nc3c2nnn3Cc2ccccc2Cl)cc1`: the cell number change was found to be 11.5%. Under setting [2], the AC50 is 14.6 µM [falling, single point].

`Cc1cc(C)cc(OCC(=O)N/N=C\c2cn(C)nc2C)c1`: the cell number change worked out at 2.73%. Besides, under setting [2], the AC50 is 1.84 µM [rising, full curve].

Consider `O=C(N/N=C/c1ccccn1)c1ccc(Br)cc1`, for which the cell number change is -19.3%. The AC50 under setting [2] is 29.1 µM [falling, single point].

On to `CCOC(=O)c1c(NC(=O)CSc2nnc(-c3cccc(C)c3)n2CC)sc(C(C)=O)c1C`, for which the cell number change was -21.5%. Further, under setting [2], the AC50 was 13 µM [falling, partial curve, poor fit].

Consider `CCCc1[nH]n(-c2ccc(F)cc2)c(=O)c1C=Nc1cccc(F)c1`, for which the cell number change was -24.7%. In addition, the AC50 under setting [2] is 0.0651 µM [rising, full curve, poor fit].

`COc1ccc([C@H]2CC(=O)C=C(/C=C/c3ccccc3)C2)cc1OC`: the cell number change was -8.1%. For the same compound, the AC50 under setting [1] is 0.00517 µM [falling, full curve, poor fit]. In addition, the AC50 under setting [2] is 0.00461 µM [falling, full curve, poor fit].

Turning to `Cc1ccc(Cl)cc1N1CCN(C(=O)C2CCN(S(=O)(=O)c3cccnc3)CC2)CC1`, the cell number change was determined as 24.6%. In addition, the AC50 under setting [1] is 0.146 µM [rising, full curve, poor fit].

As to `C=CCn1c(CCNC(=O)c2ccccc2F)nnc1SCC(=O)Nc1ccc(OC)cc1`, the cell number change was -30.1%.

On to `Cc1ccccc1CNC(=O)CCNS(=O)(=O)c1ccc(OC(F)(F)F)cc1`, for which the cell number change was 10.2%. Also, under setting [2], the AC50 was 0.116 µM [falling, full curve, poor fit].

Turning to `Cc1ccc(C(=O)C(=S)N2CCOCC2)cc1`, the cell number change stood at 130%. Under setting [1], the AC50 is 29.1 µM [rising, single point]. Also, the AC50 under setting [2] was 5.8 µM [falling, full curve, poor fit].

Take `CC1Cc2ccccc2N1C(=O)CN1C(=O)NC2(CCCCC2)C1=O` (configuration not stated): the cell number change was -39.4%. In addition, the AC50 under setting [1] is 29.1 µM [falling, single point]. Further, under setting [2], the AC50 was 29.1 µM [falling, single point].

As to `NNC(=O)c1oc2nc(-c3cccs3)cc(-c3ccco3)c2c1N`, the cell number change stood at 440%. For the same compound, under setting [1], the AC50 is 23.1 µM [rising, partial curve].

Consider `CCOC(=O)c1ccc[n+](CC(=O)c2ccc(NC(=O)c3ccccc3)cc2)c1`, for which the AC50 under setting [1] was 0.082 µM [falling, full curve, poor fit] and the AC50 under setting [2] is 6.51 µM [falling, partial curve, poor fit].

`Cc1ccc(S(=O)(=O)N2CCOCC2)cc1NC(=O)COC(=O)c1ccc(OCc2c(C)noc2C)cc1`: the cell number change was found to be 38.7%. The AC50 under setting [1] was 29.1 µM [rising, single point]. Besides, under setting [2], the AC50 was 32.6 µM [rising, single point].
